Laboratory results taken from US20180333386A1, “AGENTS USEFUL FOR TREATING FRIEDREICH'S ATAXIA AND OTHER NEURODEGENERATIVE DISEASES” (IXCHEL PHARMA LLC, priority 2011, published 2018).
Structures can show the parent of a compound that is named as a salt. For some of these results: At least one compound was matched to its structure with a doubt left. Some entries repeat one wording, which the source may state once for all of them. Some entries share one result that the patent states for a list of compounds. Some compounds share one range, which may span the group rather than tell each member.

Key:
[1] = test system: frataxin (FXN) protein in YG8 FRDA transgenic mouse; experiment: Frataxin level in YG8 FRDA transgenic mouse model (Western blot of cerebellum and splenocytes); format: in vivo; conditions: YG8 mice, 1-10 mg/kg drug daily intraperitoneal for 6 days, cerebellum
Method: Dyclonine increases frataxin levels in vivo. To determine ability of dyclonine to reverse the in vivo FXN protein defect, the YG8 FRDA transgenic mouse model was chosen. Hemizygous animals with the least frataxin were separated into vehicle and treatment groups. Homozygous mice (two copies of FXN gene) were used as positive control. Animals were dosed daily with 1 mg/kg dyclonine via intraperitoneal injection for 6 days. At the end of the study, the animals were sacrificed, and processed for biochemical analysis, i.e. Western blots of treated and vehicle groups of Cerebellum and splenocyte frataxin level. Western blot of cerebellum and splenocytes is shown (FIG. 6A) and densitometry of FXN/actin normalization (FIG. 6B) showing dyclonine induces FXN expression in vivo by 1.5-2 fold.
Of these 20, 8 were tested in the YG8 transgenic mouse model. […] Animals were dosed daily with 1-10 mg/kg drug via intraperitoneal injection for 6 days. At the end of the study, the animals were sacrificed, and processed for biochemical analysis, i.e. Western blots (protocol above) of treated and vehicle groups of Cerebellum and splenocyte frataxin level. Western blot of cerebellum is shown (FIG. 7B) and densitometry of FXN/actin normalization (FIG. 7A) showing dimethyl fumarate, dyclonine, methylene blue, and nifursol induce FXN expression in vivo by 1.5-2 fold.
To determine ability of dimethyl fumarate to reverse the in vivo FXN protein defect, the YG8 FRDA transgenic mouse model was chosen. Hemizygous animals with largest FXN defect, were separated into vehicle and treatment groups. Homozygous mice were used as positive control. Animals were dosed daily with 5 mg/kg dimethyl fumarate via intraperitoneal injection for 6 days. A non-specific HDAC inhibitor was used as a positive control, dosed at 1 mg/kg. At the end of the study, the animals were sacrificed, and processed for biochemical analysis, i.e. Western Blots of treated and vehicle groups of cerebellum and splenocyte frataxin level.

[2] = test system: Nrf2 target antioxidant response element (ARE); experiment: Nrf2/ARE luciferase assay in reporter HeLa cell line; format: cell-based, human; conditions: 24 hours; threshold mean+2× Standard deviation of the vehicle control
Method: To evaluate the mechanism of FXN induction of the […] that protected from diamide, the potency of each to activate the Nrf2 target antioxidant response element (ARE) was evaluated. 10 of the 20 frataxin inducers interacted with the Nrf2 pathway in a significant way, either positively or negatively. The dashed line=mean+2×SD. […] Dyclonine's induction of ARE/Nrf2 activity was dose-dependent (FIG. 13B).
The Nrf2 reporter HeLa cell line was generated using the Lenti Antioxidant Response Reporter (Qiagen, Valencia, Calif.) system, which expressed firefly luciferase gene and the ARE transcriptional response element. 15,000 cells/well were plated in 90 ul in phenol-free DMEM media in white wall/bottom 96 well plates. Drugs were added and plates incubated at 37 C for 24 hours. 75 microliters of Bright Glo Luciferase Assay Reagent (Promega, Madison, Wis.) with combined lysis solution was added to all wells and allowed to incubate for 5 minutes at room temperature. Luminescence was then read with a PolarStar Omega plate reader (BMG LabTech, Cary, N.C.).

[3] = test system: human FRDA patient fibroblasts; experiment: Diamide screening assay: protection of FRDA patient fibroblasts from diamide toxicity (Calcein-AM viability); format: cell-based; conditions: 200 micromolar diamide, result in words
Excerpt: The cell-based assay was further optimized for high-throughput screening in 96-well plates, with an excellent screening window and low variability, represented by a Z′ value of 0.75 (n=5) and was used to screen a library of 1600 drugs that have been approved for clinical use in the USA. Drugs that rescued at DMSO mean+two standard deviations were repeated an additional two times. Compounds that rescued in >2 screens advanced to secondary screening, which included replication of protective effect in a concentration-dependent manner, 0.01-10 μM. […] Additional mechanisms are listed below.
Diamide Screening Method Format: On the day one of the assay, cell density was determined using the Vi-Cell counter, and a volume corresponding to 5,500 human FRDA patient fibroblasts per well was aliquoted into 96-well black/clear poly-d-lysine coated plates in growth media, and the cells were allowed 3 hours to attach. Drugs (10 mM stock in DMSO) are dispensed into wells after an intermediate dilution in PBS, giving a final DMSO concentration of 0.1% using an electronic multichannel pipette. Test compounds were tested at 10 micromolar. […] Cells were washed with PBS and incubated with Calcein-AM cell viability dye (Invitrogen, Carlsbad, Calif., USA) and fluorescence was read with a PolarStar Omega plate reader (BMG LabTech, Cary, N.C.). Hits were scored as Basal Median+3×MAD.

Compound	FXN expression in vivo, FXN/actin densitometry [1]	Nrf2/ARE activity (ARE-luciferase) [2]	protection from diamide toxicity [3]
O=C(N/N=C/c1ccc([N+](=O)[O-])o1)c1cc([N+](=O)[O-])cc([N+](=O)[O-])c1O [nifursol]	1.5-2 fold		
C[C@@H]1C[C@H]2[C@@H]3CCC4=CC(=O)C=C[C@]4(C)[C@@]3(F)[C@@H](O)C[C@]2(C)[C@@]1(O)C(=O)CO [dexamethasone]		induced Nrf2/ARE activity	
CCCCOc1ccc(C(=O)CCN2CCCCC2)cc1 [dyclonine]	1.5-2 fold		
Cc1cc2nc3ccc(N(C)C)cc3[s+]c2cc1N [tolonium cl]		induced Nrf2/ARE activity	dose dependent
COC(=O)/C=C/C(=O)OC [dimethyl fumarate]	1.5-2 fold		
O=c1c2ccccc2[se]n1-c1ccccc1 [ebselen]		induced Nrf2/ARE activity	
